# This is one part of the list.
# Molecular target: T1, OsSMF1 (Oryza sativa, UniProt Q6ZLB0 1-436)
# T1 sequence: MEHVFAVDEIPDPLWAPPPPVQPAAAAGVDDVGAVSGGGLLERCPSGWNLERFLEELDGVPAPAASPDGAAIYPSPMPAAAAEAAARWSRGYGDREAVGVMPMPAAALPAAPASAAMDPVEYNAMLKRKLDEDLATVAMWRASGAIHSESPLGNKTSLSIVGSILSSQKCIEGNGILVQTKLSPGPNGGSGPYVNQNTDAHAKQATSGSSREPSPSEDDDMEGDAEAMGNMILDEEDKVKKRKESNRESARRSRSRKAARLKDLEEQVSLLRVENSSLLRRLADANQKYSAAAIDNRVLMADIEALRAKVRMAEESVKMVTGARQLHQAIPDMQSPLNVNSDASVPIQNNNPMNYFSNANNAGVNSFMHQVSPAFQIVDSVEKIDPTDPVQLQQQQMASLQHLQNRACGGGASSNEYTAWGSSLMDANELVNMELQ
# Assay: protein-binding microarray (RPBM); PBS, 2% BSA, 51.3 ng/ul salmon testes DNA, 50 uM zinc acetate, 200 nM TF, 25 C, 1 h; high values mean tight binding
# Settings: protein: recombinant; tags: N-terminal polyhistidine and DsRed monomer fusion (pET32a); chain copies: 2; label: CyDye5-dUTP incorporated in the synthesized complementary strand; 3' TTTTT single-stranded linker to array surface; dsDNA, one strand shown
# Summary of the method: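 The binding signal is fluorescence intensity per feature, in arbitrary units, read on an Axon 4000B scanner. Polyhistidine- and DsRed-tagged transcription factors (N-terminal fusions) from E. coli BL21-CodonPlus were purified on Ni–NTA and applied at 200 nM for 1 h at 25 °C to a double-stranded, BSA-blocked custom Agilent array in buffer with 50 µM zinc acetate.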
row,Sequence,binding signal
1,TGGATGATTTTGAAGGCAATGTGGACAAGGACTGGGGTGCCGGAGTCACCTAGTGCAG,19600 fluorescence intensity (a.u.)
2,TAACACGTCGCCGCGTCGTTTCTTGTTTCCCTCTGTTTATCGGAGTCACCTAGTGCAG,3900 fluorescence intensity (a.u.)
3,CCTTCGTTGACGAAGCATGTGATCCCTTCCTACAAGGCTCCGGAGTCACCTAGTGCAG,4190 fluorescence intensity (a.u.)
4,CCAGCGTCGAGTTCCACCCGCAGTGCGTCACGAACGCGCCCGGAGTCACCTAGTGCAG,5900 fluorescence intensity (a.u.)
5,ACTGCTGACGGATTTCAGATCACTACTCCTACGCCTTACACGGAGTCACCTAGTGCAG,3220 fluorescence intensity (a.u.)
6,TATTGATCTTGCTTCTTGGCCCCTTTACGTCACACGTTGACGGAGTCACCTAGTGCAG,6270 fluorescence intensity (a.u.)
7,CTGCTTGAATCCTTCTCGCTGAGCTGGCCTGCAGCCTTTTCGGAGTCACCTAGTGCAG,7190 fluorescence intensity (a.u.)
8,TTTATAGTGTAACGGTCGGTGTCAGACGACACCGATGATTCGGAGTCACCTAGTGCAG,3200 fluorescence intensity (a.u.)
9,TTGATATTTTGCATTTGCGTGCAGCCTGTACAAAATTCTGCGGAGTCACCTAGTGCAG,26400 fluorescence intensity (a.u.)
10,GAAGGCGGTTTTGACTGATGTGGCGCTTACGTGGCTGGTTCGGAGTCACCTAGTGCAG,19500 fluorescence intensity (a.u.)
11,GCAAAGCAAAGCACCAGGGCAGGGGAGGGGCAGGGAGTTTCGGAGTCACCTAGTGCAG,3180 fluorescence intensity (a.u.)
12,ACATCAACGTGTCATACACACACAACTTTTCAGTCACATCCGGAGTCACCTAGTGCAG,4240 fluorescence intensity (a.u.)
13,TCACTCATGCAGAGTCACAGCTTGTATAGTTGTAATGCATCGGAGTCACCTAGTGCAG,5370 fluorescence intensity (a.u.)
14,CATGGAAGCAGCGTGAGTGGCCTGATCATGGCGTTGTCTTCGGAGTCACCTAGTGCAG,3690 fluorescence intensity (a.u.)
15,CCATCGGAACGACACGTCGGATCGTCGGCGTCGGCAGCAGCGGAGTCACCTAGTGCAG,9230 fluorescence intensity (a.u.)
16,ACGGTCCTGCGTCATCCTTCCGTCACCAGTTTCTTGCCGACGGAGTCACCTAGTGCAG,20400 fluorescence intensity (a.u.)
17,GCCAGTGACATTTGGGTCACACGCTGACTCAGCCGCCACGCGGAGTCACCTAGTGCAG,19300 fluorescence intensity (a.u.)
18,ATCTTGACAAATTTGCTTGTAGTTTGTAGAATTTGCTGTTCGGAGTCACCTAGTGCAG,21500 fluorescence intensity (a.u.)
19,GCCGAAACGCGAAGTGACAGTGACAAGGGAAGGACGGCCCCGGAGTCACCTAGTGCAG,3220 fluorescence intensity (a.u.)
20,GCTTGCGCTGCATCACGGAAACATCCGATTGTGCATCACGCGGAGTCACCTAGTGCAG,3800 fluorescence intensity (a.u.)
21,GGGATTAGTGGGTAGGGAGGGATTCATCCCCAACAGGGATCGGAGTCACCTAGTGCAG,3140 fluorescence intensity (a.u.)

row,Sequence,binding signal
1,CCAAACATGGGCCAAATTCAATTTTAGCAAGGCACGTACCCGGAGTCACCTAGTGCAG,3140 fluorescence intensity (a.u.)
2,ATCTTAAATACTACTAGAAATTAACGGAGACTAAGGCTTGCGGAGTCACCTAGTGCAG,26500 fluorescence intensity (a.u.)
3,TTCAGGTGGCCACTTCCTGCCACGTCCTGAGTGAGTAAACCGGAGTCACCTAGTGCAG,8690 fluorescence intensity (a.u.)
4,ACCAACCGTAAAATTTTGCATGTGTCACTGACAGCTTGTCCGGAGTCACCTAGTGCAG,5620 fluorescence intensity (a.u.)
5,CACCGCTACCTACGTTGTCGCCACCCACGTCAATAATCCTCGGAGTCACCTAGTGCAG,6310 fluorescence intensity (a.u.)
6,ACGCAGGGGAGGGAGGGAGCGGTGGTGGTGGCGGCGGCGCCGGAGTCACCTAGTGCAG,4240 fluorescence intensity (a.u.)
7,TCCGATACGCCGAGGGAGTACACGCTAGCGACACTACCGGCGGAGTCACCTAGTGCAG,3200 fluorescence intensity (a.u.)
8,ATCAACTTTCGGCTTTACACCGTTGACGTAAGAATGCTTACGGAGTCACCTAGTGCAG,3620 fluorescence intensity (a.u.)
9,GAGCCCACGTGGGCCCCATATGTCAGCCTCACTCCTCCCTCGGAGTCACCTAGTGCAG,8840 fluorescence intensity (a.u.)
10,ATGTTGCTTAATTTTCCTTAGCAAATATTCAAGTCAAGGTCGGAGTCACCTAGTGCAG,3160 fluorescence intensity (a.u.)
11,GCACGAAGCCATCGGCGTCCACCCACCACATCGACGCGACCGGAGTCACCTAGTGCAG,3140 fluorescence intensity (a.u.)
12,ATCCACGTGGCAATGTATTAATCCAGTCAGCAACATCTCACGGAGTCACCTAGTGCAG,12400 fluorescence intensity (a.u.)
13,CCTCCGGCCTACGGGCTCGCTTCGGCCGAACGCTACGCCACGGAGTCACCTAGTGCAG,3240 fluorescence intensity (a.u.)
14,GATATATTAGCCGAAACTGTCACGTGGACGACATATTAGCCGGAGTCACCTAGTGCAG,5960 fluorescence intensity (a.u.)
15,GGGCCTGCCGTTGACTGACCCGTTGACACGGCCACACGCACGGAGTCACCTAGTGCAG,3320 fluorescence intensity (a.u.)
16,ATGAACTCGGCCTCGTTTATCTCTGACATGTGGGACCGGACGGAGTCACCTAGTGCAG,3200 fluorescence intensity (a.u.)
17,ACCCAAAATATGCACTCCCTCTGTCAAAGAGCCAACTGCTCGGAGTCACCTAGTGCAG,3240 fluorescence intensity (a.u.)
18,CCCTCCTCTCCGTACGTGGAGCGCATGCAAATCCCCTCGCCGGAGTCACCTAGTGCAG,4460 fluorescence intensity (a.u.)
19,ACCTCTTGCTGCTGCTCATTCTGATGTCATTCAAAGAGATCGGAGTCACCTAGTGCAG,4480 fluorescence intensity (a.u.)
20,CGCCGACGTCGGCCGCGCCGAGGCCGTCCTCGCAAACGCCCGGAGTCACCTAGTGCAG,3500 fluorescence intensity (a.u.)
21,TCTTCTCTCCTCCACCTCAGCGTTTAGTTGGCTTACAGTCCGGAGTCACCTAGTGCAG,9290 fluorescence intensity (a.u.)

# Retrieved one by one from the list above:
row,Sequence,binding signal
10,GAAGGCGGTTTTGACTGATGTGGCGCTTACGTGGCTGGTTCGGAGTCACCTAGTGCAG,19500 fluorescence intensity (a.u.)
4,ACCAACCGTAAAATTTTGCATGTGTCACTGACAGCTTGTCCGGAGTCACCTAGTGCAG,5620 fluorescence intensity (a.u.)
